From publication PMC6054149
These are yes or no findings as the source states them, for the method shown. Binding seen in cells or lysates may run through a third protein. Some binding calls cover weakened binding; strength is not graded here. For part of these data: Sequences can lack the tags named with a protein.

Sequences of proteins named here, by UniProt entry; tags and fusion partners are left off.
UniProt P42736: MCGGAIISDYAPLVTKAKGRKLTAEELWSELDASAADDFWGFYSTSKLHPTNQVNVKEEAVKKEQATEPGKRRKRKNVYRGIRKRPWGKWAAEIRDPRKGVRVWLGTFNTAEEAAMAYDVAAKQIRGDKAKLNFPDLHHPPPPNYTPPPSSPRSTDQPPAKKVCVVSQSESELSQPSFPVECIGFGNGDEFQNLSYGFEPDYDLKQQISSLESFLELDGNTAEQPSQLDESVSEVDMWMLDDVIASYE
UniProt Q8S307: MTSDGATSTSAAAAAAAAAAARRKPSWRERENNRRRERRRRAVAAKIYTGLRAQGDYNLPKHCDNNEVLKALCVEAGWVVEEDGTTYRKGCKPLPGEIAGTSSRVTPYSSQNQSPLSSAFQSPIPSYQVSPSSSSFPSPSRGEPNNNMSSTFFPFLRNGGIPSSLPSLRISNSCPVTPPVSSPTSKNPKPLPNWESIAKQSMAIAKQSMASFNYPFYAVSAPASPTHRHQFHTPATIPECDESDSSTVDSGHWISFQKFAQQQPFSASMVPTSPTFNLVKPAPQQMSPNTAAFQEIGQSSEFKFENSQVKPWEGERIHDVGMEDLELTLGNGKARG

Columns and labels:
[1] = target: ERF72 fused to the C-terminal fragment of luciferase (c-LUC) (Arabidopsis thaliana) (UniProt P42736); experiment: split reporter; firefly luciferase complementation imaging (LCI) in tobacco leaves infiltrated with Agrobacterium; nLUC and cLUC fusions
[2] = target: MBP-ERF72 (Arabidopsis thaliana) (UniProt P42736); experiment: pull-down; crude E. coli protein extracts mixed in binding buffer (10 mM Tris-HCl pH 7.5, 150 mM NaCl, 2 mM KCl, 0.1% Tween-20), 4 °C, 1 h; MBP or MBP-ERF72 as bait on amylose resin; BZR1-MYC as prey
[3] = target: T1, ARF6-nLUC fusion protein (Arabidopsis thaliana) (UniProt Q9ZTX8); experiment: split reporter; firefly luciferase complementation imaging (LCI) in tobacco leaves infiltrated with Agrobacterium; nLUC and cLUC fusions
T1 sequence: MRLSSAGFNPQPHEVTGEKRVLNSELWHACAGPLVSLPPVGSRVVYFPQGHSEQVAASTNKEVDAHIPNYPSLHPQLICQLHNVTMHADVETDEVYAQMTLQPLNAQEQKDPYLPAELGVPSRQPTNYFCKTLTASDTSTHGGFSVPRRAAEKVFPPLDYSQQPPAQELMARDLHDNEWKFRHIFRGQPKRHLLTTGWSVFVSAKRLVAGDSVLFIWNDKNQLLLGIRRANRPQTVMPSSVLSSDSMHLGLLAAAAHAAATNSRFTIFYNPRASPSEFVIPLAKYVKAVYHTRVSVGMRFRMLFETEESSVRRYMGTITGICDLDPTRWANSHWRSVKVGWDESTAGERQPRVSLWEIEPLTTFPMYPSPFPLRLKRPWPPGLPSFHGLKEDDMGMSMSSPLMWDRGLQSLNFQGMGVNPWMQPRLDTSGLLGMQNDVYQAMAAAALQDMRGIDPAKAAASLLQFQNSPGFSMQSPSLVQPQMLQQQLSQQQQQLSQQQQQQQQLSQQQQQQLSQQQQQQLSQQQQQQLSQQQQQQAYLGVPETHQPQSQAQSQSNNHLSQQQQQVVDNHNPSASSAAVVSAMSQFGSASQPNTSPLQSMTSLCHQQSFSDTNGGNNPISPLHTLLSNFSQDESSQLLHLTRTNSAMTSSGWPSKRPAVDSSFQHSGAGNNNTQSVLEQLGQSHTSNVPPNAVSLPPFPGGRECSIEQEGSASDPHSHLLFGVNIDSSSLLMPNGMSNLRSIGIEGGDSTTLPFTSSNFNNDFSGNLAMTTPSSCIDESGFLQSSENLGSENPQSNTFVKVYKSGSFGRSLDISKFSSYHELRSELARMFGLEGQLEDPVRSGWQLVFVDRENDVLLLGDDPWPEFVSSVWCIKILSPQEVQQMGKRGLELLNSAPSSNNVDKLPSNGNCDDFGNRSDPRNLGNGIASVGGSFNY

## BZR1-nLUC (from UniProt Q8S307 1-336)
[1]
  binding: binds

## recombinant MYC-tagged BZR1 (from UniProt Q8S307 1-336)
[2]
  binding: binds

## ERF72 fused to the C-terminal fragment of luciferase (c-LUC) (from UniProt P42736 1-248)
[3]
  binding: binds
